Results deposited as PubChem BioAssay AID720505 (Drosophila RNAi Screening Center, 2013).
In all, the deposit lists about 20,000 reagents; below is a random part of those with a known target gene and a result. Over the whole deposit, about 2,100 (10%) got an active call. 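Raw plate signals without normalisation; calls rest on control-based scores that were not deposited; replicate 2 separates called from uncalled poorly.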 The numbers tell different reagents against one gene apart. No sequences are given here. Not stated in the record: the amount of reagent, the time to read-out.

Purpose: 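Knock-downs that reduce calcium influx once internal stores are emptied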 (primary screen)
System: Drosophila S2R+ cells
Reagents: long dsRNA against Drosophila genes
Challenge: thapsigargin (2 µM) in calcium-free buffer to empty internal stores, then 2 mM calcium added back
Detection: 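Stores emptied by 2 µM thapsigargin without calcium, then 2 mM calcium re-added; fluo-4 fluorescence followed by FLIPR in 384-well plates, per-well averaged endpoint, raw; two screen passes, some wells retested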
Scale: calcium signal and retest calcium signal: higher = more calcium entry after store depletion
Hit rule: 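Knock-downs counted as hits when calcium entry dropped relative to STIM1 positive and Rho1 negative controls present on each plate; roughly 1500 genes called, with reductions of differing size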
Calls: active = called as lowering calcium entry; inactive = not called

CG31729 #1: calcium signal, replicate 1 = 107; calcium signal, replicate 2 = 96.4; outcome = inactive
CG31729 #2: calcium signal, replicate 1 = 78; calcium signal, replicate 2 = 115; outcome = inactive
Gprk1 (G protein-coupled receptor kinase 1) #1: calcium signal, replicate 1 = 77.2; calcium signal, replicate 2 = 8432; outcome = inactive
Gprk1 (G protein-coupled receptor kinase 1) #2: calcium signal, replicate 1 = 81.8; calcium signal, replicate 2 = 6675; outcome = inactive
Edc3 (Enhancer of decapping 3): calcium signal, replicate 1 = 119; calcium signal, replicate 2 = 96.6; outcome = inactive
CG34355 #1: calcium signal, replicate 1 = 7015; calcium signal, replicate 2 = 126; outcome = inactive
CG34355 #2: calcium signal, replicate 1 = 152; calcium signal, replicate 2 = 92.6; outcome = inactive
CG34355 #3: calcium signal, replicate 1 = 135; calcium signal, replicate 2 = 117; outcome = inactive
CG34355 #4: calcium signal, replicate 1 = 226; calcium signal, replicate 2 = 114; outcome = inactive
sei (seizure): calcium signal, replicate 1 = 181; calcium signal, replicate 2 = 114; outcome = inactive
CG14286: calcium signal, replicate 1 = 107; calcium signal, replicate 2 = 101; outcome = inactive
Urm1 (Ubiquitin-related modifier 1): calcium signal, replicate 1 = 81.9; calcium signal, replicate 2 = 154; outcome = inactive
Cyp318a1 (Cytochrome P450 318a1): calcium signal, replicate 1 = 132; calcium signal, replicate 2 = 103; outcome = inactive
CG18518: calcium signal, replicate 1 = 206; calcium signal, replicate 2 = 123; outcome = inactive
Arms (Ankyrin repeat-rich membrane spanning) #1: calcium signal, replicate 1 = 133; calcium signal, replicate 2 = 10216; retest calcium signal, replicate 1 = 93.4; retest calcium signal, replicate 2 = 152; outcome = inactive
Arms (Ankyrin repeat-rich membrane spanning) #2: calcium signal, replicate 1 = 99.4; calcium signal, replicate 2 = 8592; outcome = inactive
Arms (Ankyrin repeat-rich membrane spanning) #3: calcium signal, replicate 1 = 165; calcium signal, replicate 2 = 110; outcome = inactive
Arms (Ankyrin repeat-rich membrane spanning) #4: calcium signal, replicate 1 = 108; calcium signal, replicate 2 = 103; outcome = inactive
Ir60d (Ionotropic receptor 60d): calcium signal, replicate 1 = 121; calcium signal, replicate 2 = 188; outcome = inactive
CG31533: outcome = inactive
ppk18 (pickpocket 18) #1: calcium signal, replicate 1 = 169; calcium signal, replicate 2 = 158; outcome = inactive
ppk18 (pickpocket 18) #2: calcium signal, replicate 1 = 146; calcium signal, replicate 2 = 125; outcome = inactive
CG8539 #1: calcium signal, replicate 1 = 95.1; calcium signal, replicate 2 = 141; outcome = inactive
CG8539 #2: calcium signal, replicate 1 = 160; calcium signal, replicate 2 = 102; outcome = inactive
CG9997: calcium signal, replicate 1 = 153; calcium signal, replicate 2 = 205; outcome = inactive
CG12012: calcium signal, replicate 1 = 83; calcium signal, replicate 2 = 86.8; outcome = inactive
ft (fat): calcium signal, replicate 1 = 145; calcium signal, replicate 2 = 227; outcome = inactive
Pde1c (Phosphodiesterase 1c) #1: calcium signal, replicate 1 = 215; calcium signal, replicate 2 = 199; outcome = inactive
Pde1c (Phosphodiesterase 1c) #2: calcium signal, replicate 1 = 200; calcium signal, replicate 2 = 168; outcome = inactive
Pde1c (Phosphodiesterase 1c) #3: calcium signal, replicate 1 = 212; calcium signal, replicate 2 = 141; outcome = inactive
Pde1c (Phosphodiesterase 1c) #4: calcium signal, replicate 1 = 217; calcium signal, replicate 2 = 170; outcome = inactive
Pde1c (Phosphodiesterase 1c) #5: calcium signal, replicate 1 = 92.5; calcium signal, replicate 2 = 110; outcome = inactive
Pde1c (Phosphodiesterase 1c) #6: calcium signal, replicate 1 = 93.9; calcium signal, replicate 2 = 122; outcome = inactive
